Laboratory results taken from the supplement of paper PMC10338343.
± gives the standard deviation. This is a selection; strong and weak results do not stand in their true shares. Many of these values have a large error. The list shows a part of the results.

What was measured:
[1] = system: MIWI (PIWIL1) piRISC loaded with L1MC piRNA (30 nt); experiment: pre-steady-state target cleavage rate (min^-1); higher = faster piRNA-guided slicing of the target; conditions: guide: L1MC piRNA 5'p-UAACUAAAUACUAUGCAAGCUGUAGGUCCU;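 also: 1 nM active piRISC with 0.1 nM target library at 33 °C single turnover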
How it was run: (§1)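 In this Cleave-'n-Seq assay, uncleaved targets were sequenced and normalised to depth and to weakly complementary targets. They came from a transcribed, DNA-blocked target RNA library […] mixed with 1 nM active affinity-purified piRISC carrying one synthetic guide, with or without 500 nM GTSF1 partner protein, in HEPES–potassium acetate buffer at 33 °C for 0–8 or 0–960 min. After three trials were pooled and k3 was capped at 0.0001 min^-1, the pre-steady-state cleavage rate was obtained from a burst-and-steady-state fit.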

[2] = system: EfPiwi piRISC loaded with L1MC piRNA (26 nt); experiment: pre-steady-state target cleavage rate (min^-1); guide: L1MC piRNA 5'p-UAACUAAAUACUAUGCAAGCUGUAGG; MIWI and MILI are mouse PIWI proteins and EfPiwi is from a freshwater sponge; tags in brackets are library labels; higher = faster piRNA-guided slicing of the target
How it was run: as §1

[3] = auxiliary factor: none (no GTSF1)
[4] = auxiliary factor: 500 nM Ephydatia muelleri Gtsf1
[5] = auxiliary factor: 500 nM mouse GTSF1
[6] = auxiliary factor: none (no Gtsf1)

Sequence	pre-steady-state target cleavage rate [1, 3]	pre-steady-state target cleavage rate [2, 4]	pre-steady-state target cleavage rate [1, 5]	pre-steady-state target cleavage rate [2, 6]
UCCUGGAUGUGCAACCAUAGUAUUUAGAAA	0.000148 ± 0.05	0.000237 ± 0.013	–	–
UCCUGGAUGUGCUUGCAUAGAUAUUAGUUA	0.000298 ± 0.015	0.00162 ± 0.0069	–	–
UCCUGGAUGUCGAACGUAUGUAUUUAGGUUA	–	0.0001 ± 0.041	0.000178 ± 0.039	–
UCCUGGAUGUCCAUGCAUAGUUUUUAGUUA	0.00129 ± 0.0053	0.000336 ± 0.011	–	–
UCCUGGAUGUCCUUGCUUAGUUUUUAGUUA	0.0026 ± 0.0039	0.000167 ± 0.019	–	–
UCCUCCUACAGCUUCCAUAGUUUUUAGUUA	0.00169 ± 0.0025	0.00144 ± 0.002	–	–
UCCUGGAUGUCGAACGUAAGUAUUUAGUCA	0.000208 ± 0.018	–	–	< 0.0001
UCCUGGAUGUCGAUGCAUAGUAAUUUAGUUA	0.00115 ± 0.0063	0.000834 ± 0.0074	–	–
UCCUGGAUGUGCAAGCAUAGUAUUUAGUAA	0.00129 ± 0.0077	0.00351 ± 0.0051	–	–
UCCUGGAUCAGCUUCGAUAGUAUUUAGUUA	0.00246 ± 0.0032	0.00503 ± 0.0041	–	–
UCCUGGAUGUCGAAGGAUAGUAUUUAGUAA	0.00022 ± 0.021	–	–	0.000141 ± 0.06
UCCUGGUACAGCUUCGAUAGUAUUUAGUAA	0.00188 ± 0.0043	0.000882 ± 0.0065	–	–
UCCUGGAUGUCGAAGCAUAGUAUUAACUUA	0.000209 ± 0.029	0.000115 ± 0.031	–	–
UCCUGGAUCAGCUUGCAUAGAUAUUUAGUUA	0.00127 ± 0.0043	0.00226 ± 0.0051	–	–
UCCUGGAUGUCCUUGGAUAGUAUUAAGUUA	0.000465 ± 0.016	0.000443 ± 0.012	–	–
UCCUCCUACAGCUUGCAUACAAUUUACAAA	0.000481 ± 0.012	0.00205 ± 0.0061	–	–
UCCUGGAUGAGCUACGAUAGUAUUUAGUAA	0.000384 ± 0.016	0.000291 ± 0.017	–	–
UCCUGCUACAGCUUGCAUAGAUAUUUCAAA	0.000251 ± 0.013	0.00184 ± 0.0032	–	–
UCCUGGAUCAGCUUGCAUAGAUAUUAGUAA	0.000288 ± 0.018	0.000324 ± 0.013	–	–
UCCUGGAUGUCGUCGCAUAGUAUUUAGUUA	0.0015 ± 0.0044	0.00221 ± 0.0048	–	–
UCCUGGAUGUGCUUGCAAUCAUAAAUCAAA [g14:g20:cont:t1A]	0.000214 ± 0.017	0.000185 ± 0.022	–	–

Part of the list above, bar-delimited:
Sequence | pre-steady-state target cleavage rate [1, 3] | pre-steady-state target cleavage rate [2, 4] | pre-steady-state target cleavage rate [1, 5] | pre-steady-state target cleavage rate [2, 6]
UCCUCCUACAGCUUGCAUACAAUUUACAAA | 0.000481 ± 0.012 | 0.00205 ± 0.0061 | – | –
UCCUGGAUGAGCUACGAUAGUAUUUAGUAA | 0.000384 ± 0.016 | 0.000291 ± 0.017 | – | –
UCCUGCUACAGCUUGCAUAGAUAUUUCAAA | 0.000251 ± 0.013 | 0.00184 ± 0.0032 | – | –
UCCUGGAUGUGCUUGCAAUCAUAAAUCAAA [g14:g20:cont:t1A] | 0.000214 ± 0.017 | 0.000185 ± 0.022 | – | –

Further entries:

Sequence	pre-steady-state target cleavage rate [1, 3]	pre-steady-state target cleavage rate [2, 4]	pre-steady-state target cleavage rate [1, 5]	pre-steady-state target cleavage rate [2, 6]
UCCUGGAUGUCGAACGUCAGUAUUUAGUUA	0.000136 ± 0.03	< 0.0001	–	–
UCCUGGAUGUCGAUCCAUAGUAUUAAGUUA	0.000168 ± 0.03	0.000447 ± 0.01	–	–
UCCUGGAUGAGCUUGGAAAGUAUUUAGUUA	0.00245 ± 0.0031	0.00122 ± 0.0047	–	–
UCCUGGAUGUCGAUGCAUAGUAUUUAGUCA	0.00139 ± 0.0049	0.00147 ± 0.0052	–	–
UCCUGGAUCAGCUUGCAUAUAUUUAGUUA	0.00147 ± 0.0035	0.00199 ± 0.0047	–	–
UCCUGGAUGUCGUACGAUAGUAUUUAGUUA	0.000224 ± 0.02	0.000172 ± 0.018	–	–
UCCUGGAUCAGCUUGCAAAGUAUUUUCAAA	0.00185 ± 0.0036	0.00083 ± 0.0039	–	–
UCCUGGAUGAGCUUCCUUAGUAUUUAGUUA	0.00134 ± 0.0043	0.00268 ± 0.003	–	–
UCCUGGAACAGCUUGCAUAGUAUUAUGUAA	0.00122 ± 0.0047	0.00172 ± 0.0024	–	–
UCCUGGAUGUGCUUCCAUAGUAUUUAGAUA	0.00055 ± 0.014	0.00187 ± 0.0033	–	–
UCCUGCUACAGCUAGCAUAGUAUUUUCAAA	0.000702 ± 0.01	0.00142 ± 0.0026	–	–
UCCUGGAUGUCGAAGCAUAGUAAAAUCAAA [g9:g16:cont:t1A]	0.00034 ± 0.018	0.000592 ± 0.0099	–	–
UCCUGGAUGUGCAUGCAUAGUAUAUAGUUA	0.00236 ± 0.004	0.000432 ± 0.011	–	–
UCCUGGAUGUCGUUGCAUACUAUUUAGAUA	0.00049 ± 0.011	0.000185 ± 0.018	–	–
UCCUGGAUCAGCAAGCAUAGUAUUUAGUAA	0.00246 ± 0.0032	0.00238 ± 0.0036	–	–
UCCUGGAUGUCCUUGCAAAGUAUUAAGUUA	0.00159 ± 0.004	0.000341 ± 0.0084	–	–
UCCUCCUACAGCUUCGUUAGUAUUUAGUUA	0.00132 ± 0.0027	0.00276 ± 0.0037	–	–
UCCUCCUACAGCUAGCAUAGUAUUUUCAAA	0.000385 ± 0.0059	0.00276 ± 0.0031	–	–
UCCUGGAUGUCGAACCAUAGUAUUUAGCUUA	–	0.000219 ± 0.022	0.000157 ± 0.03	–
UCCUGGAUGUCGAACCAUAGUAUUUAGAUUA	–	0.000352 ± 0.019	0.000338 ± 0.012	–
UCCUGGAUCAGCUACCAUAGUAUUUUCAAA	0.000853 ± 0.007	0.000188 ± 0.019	–	–

Sequence	pre-steady-state target cleavage rate [1, 3]	pre-steady-state target cleavage rate [2, 4]	pre-steady-state target cleavage rate [1, 5]	pre-steady-state target cleavage rate [2, 6]
UCCUGGAUGUCGAUGCAAAGUAUUAAGUUA	0.000476 ± 0.015	–	–	0.000301 ± 0.024
UCCUGGAUGUCCUUGCAUAGUAUUCUAGUUA	0.00312 ± 0.0037	0.00157 ± 0.0034	–	–
UCCUGGAUGUGCUUGCAAUGUAUUUAGUAA	0.00247 ± 0.0027	0.000339 ± 0.011	–	–
UCCUCCUACAGCUUCCAUAGUAUUUUGUUA	0.00102 ± 0.0049	0.00145 ± 0.002	–	–
UCCUGCUACAGCUUGCAUACAAUUUUCAAA	0.000787 ± 0.011	0.00133 ± 0.0054	–	–
UCCUGGAUGUCGUUCGUUAGUAUUUAGUUA	0.000535 ± 0.012	0.00032 ± 0.01	–	–
UCCUGGAACAGCUACGAUAGUAUUUAGUUA	0.000453 ± 0.007	0.000241 ± 0.017	–	–
UCCUGGAUGUCGUGUGCAUAGUAUUUAGUUA	0.00228 ± 0.006	–	–	0.000795 ± 0.011
UCCUGGAUGUCGAACCAUAGUAUAAAGUUA	0.000165 ± 0.026	0.000252 ± 0.023	–	–
UCCUGGAUGUCGAAGCAUGUAUUUAGUUA	0.000883 ± 0.0088	0.000193 ± 0.017	–	–
UCCUGGAUGUCGUUGCAUAGUAUUUAUUUA	0.00195 ± 0.0043	0.000481 ± 0.0079	–	–
UCCUGGAUGUCGAACGUGAGUAUUUAGUUA	0.000286 ± 0.017	0.000198 ± 0.014	–	–
UCCUGGAACAGCUACGAUAGUAUUUUCAAA	0.000749 ± 0.0077	0.000397 ± 0.0086	–	–
UCCUGGAUGUCGUUGACAUAGUAUUUAGUUA	0.00056 ± 0.016	0.00159 ± 0.0059	–	–
UCCUGGAUGUCGUUGCAUAGUAUUUAGUCA	0.00273 ± 0.0036	0.00071 ± 0.0056	–	–
UCCUGGAUGUCGAUCCAUAGUAUUUAGAUA	0.00028 ± 0.017	0.000176 ± 0.015	–	–
UCCUGGAUGUCGAACCAUAGUCAUUUAGUUA	0.000393 ± 0.013	0.000277 ± 0.026	–	–
UCCUGGAUGUCGAACCAAAGUAAUUAGUUA	0.000166 ± 0.014	–	–	0.000255 ± 0.019
UCCUGGUACAGCAACCAUAGUAUUUAGUAA	0.0016 ± 0.0048	0.00169 ± 0.0077	–	–
